In patent US9277747B2, “Agricultural composition comprising pH sensitive agricultural chemicals and organic pH buffer” (NUTRIAG LTD., priority 2010, dated 2016):
Some entries share one result that the patent states for a list of compounds.

Test: Storage stability of concentrates at elevated temperatures
Details: concentrate comprising a carbohydrate acid and the named pH indicator; storage temperature of about 40° C.

CN(C)c1ccc(/N=N/c2ccccc2C(=O)O)cc1 [methyl red]
time of storage within which the concentrate would deteriorate: 3 to 4 weeks
